# Assay results taken from the supplement of paper PMC11637464.
# Where a name gives a salt, the structure may show the parent alone. This is one part of the list. Repeats are few or missing, and single values can be far off.
# Test system: primary mouse Muller glia with Ascl1 overexpression
# Test: total cells recovered per well; higher = more cells recovered
# Details: collection day: 2
# Experimental: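 Primary P11 mouse Muller glia carrying dox-inducible Ascl1 were treated with Tocriscreen Stem Cell Library compounds at 0.1, 1 or 10 uM together with doxycycline for 5 days, then profiled by sci-Plex hashing and sci-RNA-seq2. Cells were annotated by marker genes and cell-type counts per well were size-factor adjusted. Read-outs are the log2 fold change of Neuronal (NeuPre + bipolar) and ProL cell counts versus the Ascl1-only control wells of the same collection day, plus the raw number of recovered cells per well. There is one well per dose, and wells with fewer than 20 cells were discarded.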
Structure (SMILES),total cells recovered per well (0.1 µM),total cells recovered per well (1 µM),total cells recovered per well (10 µM)
N[C@@H]1C[C@H]1c1ccccc1 [Tranylcypromine hydrochloride],104,99,116
COc1ccc(N(C(=O)Oc2c(C)cccc2C)c2ccnc(Nc3ccc(N4CCN(C)CC4)cc3)n2)c(OC)c1,74,50,–
Cc1sc2c(c1C)C(c1ccc(Cl)cc1)=N[C@@H](CC(N)=O)c1nnc(C)n1-2,94,78,49
